Data: PMC6051640
No constants are given. Whether binding was seen depends on the method and setting. In cells and extracts the contact can be indirect. Some entries that bind do so weakly or less than the wild type.

By UniProt entry, the sequences of proteins in these tests, tags left out. Where a name states a change or a piece, a line headed by the entry shows the natural chain unless it says otherwise.
UniProt P45481: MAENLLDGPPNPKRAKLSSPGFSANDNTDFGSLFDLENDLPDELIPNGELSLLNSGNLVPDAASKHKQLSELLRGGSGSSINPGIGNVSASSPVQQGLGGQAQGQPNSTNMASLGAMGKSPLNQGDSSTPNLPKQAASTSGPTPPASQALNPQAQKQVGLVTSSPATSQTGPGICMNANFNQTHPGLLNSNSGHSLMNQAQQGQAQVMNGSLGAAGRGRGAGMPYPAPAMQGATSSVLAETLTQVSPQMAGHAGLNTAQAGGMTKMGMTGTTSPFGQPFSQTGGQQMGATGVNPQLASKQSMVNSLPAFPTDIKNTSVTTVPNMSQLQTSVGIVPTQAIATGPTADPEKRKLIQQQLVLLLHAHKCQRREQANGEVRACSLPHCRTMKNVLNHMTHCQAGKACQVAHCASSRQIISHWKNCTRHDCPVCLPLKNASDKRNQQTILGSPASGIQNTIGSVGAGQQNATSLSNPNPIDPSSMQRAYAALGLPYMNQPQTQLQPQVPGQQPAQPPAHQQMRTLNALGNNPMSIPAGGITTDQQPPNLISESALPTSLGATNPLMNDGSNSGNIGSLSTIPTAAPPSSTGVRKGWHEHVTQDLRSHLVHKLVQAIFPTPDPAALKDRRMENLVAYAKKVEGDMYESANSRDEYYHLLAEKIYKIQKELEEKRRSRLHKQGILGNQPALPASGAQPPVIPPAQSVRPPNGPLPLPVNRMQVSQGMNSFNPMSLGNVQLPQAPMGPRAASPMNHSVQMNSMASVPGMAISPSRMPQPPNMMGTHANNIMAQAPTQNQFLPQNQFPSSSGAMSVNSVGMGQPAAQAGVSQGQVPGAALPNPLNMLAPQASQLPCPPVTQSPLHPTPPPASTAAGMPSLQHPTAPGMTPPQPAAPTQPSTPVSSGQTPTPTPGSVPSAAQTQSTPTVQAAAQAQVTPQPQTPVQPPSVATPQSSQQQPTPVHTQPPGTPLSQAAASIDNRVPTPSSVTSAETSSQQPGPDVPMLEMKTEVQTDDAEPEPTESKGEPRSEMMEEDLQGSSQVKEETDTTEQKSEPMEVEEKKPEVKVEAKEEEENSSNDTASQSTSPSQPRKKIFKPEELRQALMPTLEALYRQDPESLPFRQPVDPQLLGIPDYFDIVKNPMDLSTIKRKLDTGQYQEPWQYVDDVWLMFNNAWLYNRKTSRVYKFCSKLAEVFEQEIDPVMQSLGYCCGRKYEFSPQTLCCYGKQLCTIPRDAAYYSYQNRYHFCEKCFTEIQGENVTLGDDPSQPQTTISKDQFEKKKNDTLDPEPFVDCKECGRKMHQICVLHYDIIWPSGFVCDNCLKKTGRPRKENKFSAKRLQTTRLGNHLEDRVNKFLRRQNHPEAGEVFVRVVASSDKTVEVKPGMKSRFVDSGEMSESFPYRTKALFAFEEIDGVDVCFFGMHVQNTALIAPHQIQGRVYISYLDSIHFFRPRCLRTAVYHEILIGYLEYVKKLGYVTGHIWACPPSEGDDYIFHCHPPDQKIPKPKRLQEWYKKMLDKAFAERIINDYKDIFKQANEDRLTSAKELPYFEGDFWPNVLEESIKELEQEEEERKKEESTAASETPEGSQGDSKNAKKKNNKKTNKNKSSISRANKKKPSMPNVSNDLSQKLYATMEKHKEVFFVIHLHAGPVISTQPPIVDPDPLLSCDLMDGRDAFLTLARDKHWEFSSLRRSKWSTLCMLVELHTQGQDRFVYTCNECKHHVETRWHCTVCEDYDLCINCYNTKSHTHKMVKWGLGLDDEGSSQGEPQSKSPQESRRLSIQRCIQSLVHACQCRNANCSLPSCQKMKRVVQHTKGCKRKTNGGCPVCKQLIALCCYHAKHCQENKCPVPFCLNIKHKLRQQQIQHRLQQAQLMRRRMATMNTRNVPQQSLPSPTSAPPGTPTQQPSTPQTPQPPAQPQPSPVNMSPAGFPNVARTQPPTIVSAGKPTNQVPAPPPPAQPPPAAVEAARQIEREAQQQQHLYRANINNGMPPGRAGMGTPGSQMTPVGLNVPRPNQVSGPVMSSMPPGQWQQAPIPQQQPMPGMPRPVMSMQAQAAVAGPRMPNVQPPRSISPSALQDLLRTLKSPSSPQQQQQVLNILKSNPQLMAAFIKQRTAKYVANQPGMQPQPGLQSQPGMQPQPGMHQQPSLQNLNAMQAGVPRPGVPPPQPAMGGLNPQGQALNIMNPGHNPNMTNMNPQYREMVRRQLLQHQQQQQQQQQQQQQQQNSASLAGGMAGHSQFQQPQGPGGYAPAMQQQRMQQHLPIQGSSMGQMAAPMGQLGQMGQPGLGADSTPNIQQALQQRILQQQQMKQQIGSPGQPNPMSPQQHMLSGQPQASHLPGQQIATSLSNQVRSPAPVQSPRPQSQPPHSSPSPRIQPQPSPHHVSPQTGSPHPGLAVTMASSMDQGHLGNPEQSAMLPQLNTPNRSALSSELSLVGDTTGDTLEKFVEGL
UniProt B2RWS6: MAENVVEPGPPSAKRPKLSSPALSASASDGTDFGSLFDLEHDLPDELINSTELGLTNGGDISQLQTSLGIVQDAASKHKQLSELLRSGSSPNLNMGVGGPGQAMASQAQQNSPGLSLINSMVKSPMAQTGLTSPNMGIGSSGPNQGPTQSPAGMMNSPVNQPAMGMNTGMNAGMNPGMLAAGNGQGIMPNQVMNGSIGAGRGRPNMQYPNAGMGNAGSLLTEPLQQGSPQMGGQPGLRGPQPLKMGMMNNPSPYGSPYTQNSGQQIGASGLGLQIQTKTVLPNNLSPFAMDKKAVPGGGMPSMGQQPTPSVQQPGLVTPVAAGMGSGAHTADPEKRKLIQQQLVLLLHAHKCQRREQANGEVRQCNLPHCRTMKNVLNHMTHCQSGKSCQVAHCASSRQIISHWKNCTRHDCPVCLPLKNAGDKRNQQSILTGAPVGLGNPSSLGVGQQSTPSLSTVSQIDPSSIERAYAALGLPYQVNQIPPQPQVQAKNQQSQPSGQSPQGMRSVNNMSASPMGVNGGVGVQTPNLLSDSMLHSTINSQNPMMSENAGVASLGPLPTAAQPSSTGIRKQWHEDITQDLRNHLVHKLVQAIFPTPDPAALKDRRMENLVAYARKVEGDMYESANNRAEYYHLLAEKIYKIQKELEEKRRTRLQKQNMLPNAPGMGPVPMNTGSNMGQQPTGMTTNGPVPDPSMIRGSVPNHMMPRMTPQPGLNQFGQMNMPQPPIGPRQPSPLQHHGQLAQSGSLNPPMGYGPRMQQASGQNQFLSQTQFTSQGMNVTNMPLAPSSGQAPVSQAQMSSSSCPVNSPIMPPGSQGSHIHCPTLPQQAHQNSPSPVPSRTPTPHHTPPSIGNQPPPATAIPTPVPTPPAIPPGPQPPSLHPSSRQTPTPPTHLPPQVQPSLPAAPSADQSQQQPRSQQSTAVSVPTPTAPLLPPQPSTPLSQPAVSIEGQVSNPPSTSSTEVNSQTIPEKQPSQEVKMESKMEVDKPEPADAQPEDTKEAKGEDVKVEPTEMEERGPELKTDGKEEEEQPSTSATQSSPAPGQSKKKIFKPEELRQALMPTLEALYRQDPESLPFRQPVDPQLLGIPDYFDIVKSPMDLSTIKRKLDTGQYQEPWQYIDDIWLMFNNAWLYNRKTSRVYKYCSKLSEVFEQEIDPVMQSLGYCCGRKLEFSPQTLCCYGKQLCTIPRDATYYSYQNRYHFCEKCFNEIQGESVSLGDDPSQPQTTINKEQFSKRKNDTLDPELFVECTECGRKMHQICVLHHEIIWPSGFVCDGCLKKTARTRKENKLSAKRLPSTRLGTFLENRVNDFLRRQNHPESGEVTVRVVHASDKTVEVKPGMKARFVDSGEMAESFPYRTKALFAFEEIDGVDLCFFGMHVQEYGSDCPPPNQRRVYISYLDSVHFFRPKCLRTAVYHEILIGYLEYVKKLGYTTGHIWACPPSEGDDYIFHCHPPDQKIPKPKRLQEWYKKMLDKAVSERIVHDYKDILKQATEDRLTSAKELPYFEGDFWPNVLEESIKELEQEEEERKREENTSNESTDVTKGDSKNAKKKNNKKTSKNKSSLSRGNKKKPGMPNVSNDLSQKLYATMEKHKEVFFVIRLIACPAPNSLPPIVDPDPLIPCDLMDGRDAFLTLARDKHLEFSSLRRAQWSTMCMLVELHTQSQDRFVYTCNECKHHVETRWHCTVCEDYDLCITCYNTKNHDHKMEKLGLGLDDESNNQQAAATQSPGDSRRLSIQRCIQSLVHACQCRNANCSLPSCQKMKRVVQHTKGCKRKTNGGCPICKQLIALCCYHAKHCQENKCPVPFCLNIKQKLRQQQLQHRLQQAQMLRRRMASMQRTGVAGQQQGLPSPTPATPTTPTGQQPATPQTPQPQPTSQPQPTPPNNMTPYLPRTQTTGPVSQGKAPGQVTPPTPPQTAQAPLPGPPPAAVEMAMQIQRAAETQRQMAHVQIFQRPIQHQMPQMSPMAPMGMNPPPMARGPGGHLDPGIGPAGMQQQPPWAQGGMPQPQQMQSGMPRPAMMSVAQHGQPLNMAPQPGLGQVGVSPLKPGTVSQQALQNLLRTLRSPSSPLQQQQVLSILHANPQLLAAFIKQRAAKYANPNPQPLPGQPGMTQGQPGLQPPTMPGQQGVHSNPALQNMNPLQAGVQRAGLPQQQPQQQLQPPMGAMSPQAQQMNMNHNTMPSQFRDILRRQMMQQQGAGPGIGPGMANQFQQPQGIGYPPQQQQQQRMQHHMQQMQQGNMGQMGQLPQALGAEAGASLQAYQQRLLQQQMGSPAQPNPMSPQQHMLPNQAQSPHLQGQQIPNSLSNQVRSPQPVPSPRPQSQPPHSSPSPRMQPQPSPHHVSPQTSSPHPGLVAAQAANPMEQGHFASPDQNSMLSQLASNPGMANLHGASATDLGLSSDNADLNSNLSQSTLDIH
UniProt Q02248: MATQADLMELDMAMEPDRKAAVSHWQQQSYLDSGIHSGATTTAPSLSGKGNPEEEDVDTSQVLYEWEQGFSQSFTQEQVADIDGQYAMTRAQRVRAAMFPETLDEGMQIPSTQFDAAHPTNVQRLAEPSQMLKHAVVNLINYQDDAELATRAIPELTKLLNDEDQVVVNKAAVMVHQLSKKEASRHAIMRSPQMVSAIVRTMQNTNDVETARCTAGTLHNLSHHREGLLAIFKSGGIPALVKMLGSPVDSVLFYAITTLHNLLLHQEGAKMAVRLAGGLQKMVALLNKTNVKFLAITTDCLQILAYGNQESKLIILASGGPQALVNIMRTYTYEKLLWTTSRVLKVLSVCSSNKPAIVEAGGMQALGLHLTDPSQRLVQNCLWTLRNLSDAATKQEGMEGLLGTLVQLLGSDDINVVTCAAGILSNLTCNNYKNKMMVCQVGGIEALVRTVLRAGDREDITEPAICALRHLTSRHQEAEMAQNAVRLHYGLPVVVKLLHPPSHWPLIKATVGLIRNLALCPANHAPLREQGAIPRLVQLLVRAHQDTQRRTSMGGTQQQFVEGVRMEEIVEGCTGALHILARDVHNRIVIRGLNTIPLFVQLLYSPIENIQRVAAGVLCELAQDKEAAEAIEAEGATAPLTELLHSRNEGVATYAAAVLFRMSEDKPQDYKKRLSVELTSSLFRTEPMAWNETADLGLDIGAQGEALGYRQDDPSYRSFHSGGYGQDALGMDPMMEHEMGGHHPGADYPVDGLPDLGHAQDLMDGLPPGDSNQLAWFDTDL

Tests used:
[1] = biological target: cAMP response element binding protein (CREB)-binding protein (CBP) (mouse (endogenous in P19)) (UniProt P45481); test: co-IP; wild type P19 cells; 200 μg nuclear protein in co-ip buffer (25mM Tris HCl pH7.5, 150mM NaCl, 5% glycerol, 0.5% NP40, 1mM EDTA, 2mM DTT), 2 μg CBP, p300 or normal rabbit IgG antibody overnight at 4°C, protein A-agarose; immunoblot for β-catenin
[2] = biological target: E1A-binding protein, 300 kDa (p300), wild type (mouse (endogenous in P19)) (UniProt B2RWS6); test: as above
[3] = biological target: cAMP response element binding protein (CREB)-binding protein (CBP) (mouse (endogenous in P19)) (UniProt P45481); test: co-IP; p300-edited P19 cells (clone 10); 200 μg nuclear protein in co-ip buffer (25mM Tris HCl pH7.5, 150mM NaCl, 5% glycerol, 0.5% NP40, 1mM EDTA, 2mM DTT), 2 μg CBP, p300 or normal rabbit IgG antibody overnight at 4°C, protein A-agarose; immunoblot for β-catenin

binding [1]: binds | binding [2]: binds
Substance: β-catenin (from UniProt Q02248 1-781)
binding [3]: no binding (condition: in p300-edited P19 cells)
